The text below walks through data of the supplement of paper PMC10373366.

The test system of experiment [1] is A2780. Briefly: cell growth inhibition ratio vs untreated control (CCK8); higher = stronger inhibition of cell viability. The conditions noted are these: 10 µM; 48 h. As for the experimental part: (§1)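 Natural product library (Topscience) screened at 10 µM final concentration for 48 h on ovarian cancer A2780 cells and patient-derived ovarian cancer cells (PDC) in 96-well plates; viability read by CCK8 and reported as inhibition ratio (%) relative to untreated control. Single-dose primary screen.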

The subject of experiment [2] is patient-derived ovarian cancer cells (PDC). Described as above. The conditions noted are these: 10 µM; 48 h. As to the method: as §1

Some of the results follow. Single values are uncertain, as repeats are few or missing.

For the compound `C[C@@H]1CC[C@@]2(OC1)O[C@H]1C[C@H]3[C@@H]4CC=C5C[C@@H](O[C@@H]6O[C@H](CO)[C@@H](O)[C@H](O[C@@H]7O[C@H](CO)[C@@H](O)[C@H](O)[C@H]7O)[C@H]6O[C@@H]6O[C@@H](C)[C@H](O)[C@@H](O)[C@H]6O)CC[C@]5(C)[C@H]4CC[C@]3(C)[C@H]1[C@@H]2C` [Gracillin], the “cell growth inhibition ratio” value came out at 93.3% in experiment [1] and 92.4% in experiment [2].
With `COc1ccc(-c2cc(=O)c3c(O)cc(O)cc3o2)cc1O` [Diosmetin], the “cell growth inhibition ratio” value in experiment [1] came to 86.5%; in experiment [2] it was 73.2%.
Turning to `OC[C@@H](O)[C@@H](O)CO` [Erythritol], the results for the “cell growth inhibition ratio” value in experiment [1] and in experiment [2] were 1.8% and 8.06%, respectively.
Regarding `COC(=O)[C@H]1[C@H]2C[C@@H]3c4[nH]c5cc(OC)ccc5c4CCN3C[C@H]2C[C@@H](OC(=O)c2cc(OC)c(OC)c(OC)c2)[C@@H]1OC` [Reserpine], the “cell growth inhibition ratio” value in experiment [1] came to 28.9%; in experiment [2], 4.23%.
As for `C[C@H]1O[C@@H](O[C@H]2CC[C@@]3(C)[C@@H](CC[C@]4(C)[C@@H]3C=C[C@]35OC[C@@]6(CCC(C)(C)C[C@H]63)[C@@H](O)C[C@]54C)[C@]2(C)CO)[C@H](O)[C@@H](O[C@@H]2O[C@H](CO)[C@@H](O)[C@H](O)[C@H]2O)[C@H]1O` [Saikosaponin A], the “cell growth inhibition ratio” value in experiment [1] was 9.43%; in experiment [2], -0.0149%.
The matching figures for `CO[C@]1(CC[C@@H](C)CO[C@@H]2O[C@H](CO)[C@@H](O)[C@H](O)[C@H]2O)O[C@H]2C[C@H]3[C@@H]4CC=C5C[C@@H](O[C@@H]6O[C@H](CO)[C@@H](O[C@@H]7O[C@@H](C)[C@H](O)[C@@H](O)[C@H]7O)[C@H](O)[C@H]6O[C@@H]6O[C@@H](C)[C@H](O)[C@@H](O)[C@H]6O)CC[C@]5(C)[C@H]4CC[C@]3(C)[C@H]2[C@@H]1C` [Methyl protodioscin]: 93.3% and 92.3%.
Turning to `COc1cc(/C=C/C(=O)OC[C@H]2O[C@H](O[C@]3(CO)O[C@H](CO)[C@@H](O)[C@@H]3OC(=O)/C=C/c3cc(OC)c(O)c(OC)c3)[C@H](O)[C@@H](O)[C@@H]2O)cc(OC)c1O` [3,6'-Disinapoyl sucrose], the “cell growth inhibition ratio” value in experiment [1] was 5.14%; in experiment [2] it was -0.165%.
The matching figures for `CC(C)=CCC/C(C)=C/CC/C(C)=C/CC/C(C)=C/CC1=C(C)C(=O)c2ccccc2C1=O` [Menatetrenone]: 10.3% and 3.04%.
Turning to `Nc1ncnc2c1ncn2[C@@H]1O[C@H](CO)[C@@H](O)[C@H]1O` [Adenosine], the “cell growth inhibition ratio” value is 3.94% in experiment [1] and -5.26% in experiment [2].
The matching figures for `O=C(O)c1cc(O)c2c(c1)C(=O)c1cccc(O)c1C2=O` [Rheic Acid]: -0.92% and -5.12%.
The matching figures for `C[C@H]1[C@@H](O)O[C@@H]2O[C@@]3(C)CC[C@H]4[C@H](C)CC[C@@H]1[C@@]24OO3` [Dihydroartemisinin]: 71.1% and 9.62%.
For `OCc1ccccc1O[C@@H]1O[C@H](CO)[C@@H](O)[C@H](O)[C@H]1O` [Salicoside], the “cell growth inhibition ratio” value is 15.5% in experiment [1] and -6.59% in experiment [2].
For `OC[C@H]1O[C@H](OC[C@H]2O[C@H](OC[C@H]3O[C@H](O[C@]4(CO)O[C@H](CO)[C@@H](O)[C@@H]4O)[C@H](O)[C@@H](O)[C@@H]3O)[C@H](O)[C@@H](O)[C@H]2O)[C@H](O)[C@@H](O)[C@H]1O` [D-Stachyose tetrahydrate], the “cell growth inhibition ratio” value in experiment [1] is 1.85%; in experiment [2], -13.1%.
On to `C=C1C[C@]23C[C@@]1(O)CC[C@H]2[C@@]12C=C[C@H](O)[C@@](C)(C(=O)O1)[C@H]2[C@@H]3C(=O)O` [Gibberellic acid], for which the “cell growth inhibition ratio” value is 2.06% in experiment [1] and -19.9% in experiment [2].
Turning to `COc1cc(-c2oc3cc(O)cc(O)c3c(=O)c2O[C@@H]2O[C@H](CO[C@@H]3O[C@@H](C)[C@H](O)[C@@H](O)[C@H]3O)[C@@H](O)[C@H](O)[C@H]2O[C@@H]2O[C@@H](C)[C@H](O)[C@@H](O)[C@H]2O)ccc1O` [Typhaneoside], the “cell growth inhibition ratio” value in experiment [1] amounted to 16.9%; in experiment [2], 2.97%.
On to `COc1cc(C(C)=O)ccc1O` [Acetovanillone], for which the entries for the “cell growth inhibition ratio” value in experiment [1] and in experiment [2] were 16.7% and 6.03%, respectively.
Regarding `COc1c(O[C@@H]2O[C@H](C(=O)O)[C@@H](O)[C@H](O)[C@H]2O)cc(O)c2c(=O)cc(-c3ccccc3)oc12` [Wogonoside], the “cell growth inhibition ratio” value in experiment [1] is 7.6%; in experiment [2], 0.917%.
Take `C=CCS[S+]([O-])CC=C` (stereo not drawn) [Allicin]: the “cell growth inhibition ratio” value in experiment [1] is -1.9%; in experiment [2], 3.12%.
Consider `Cc1c(C)c2c(c(C)c1O)CC[C@@](C)(CCC[C@H](C)CCC[C@H](C)CCCC(C)C)O2` [Vitamin E], for which the “cell growth inhibition ratio” value was 10.2% in experiment [1] and 3.66% in experiment [2].
For `COc1c(O)cc(O)c2c(=O)cc(-c3ccccc3)oc12` [Wogonin], the “cell growth inhibition ratio” value in experiment [1] was 59.9%; in experiment [2], 11.9%.
As to `NC1C(O)O[C@H](CO)C(O[C@@H]2O[C@H](CO)C(O[C@@H]3O[C@H](CO)[C@@H](O)[C@H](O)[C@H]3N)[C@H](O)C2N)C1O` (stereo partly drawn) [Chitosan], the “cell growth inhibition ratio” value in experiment [1] was 21.9%; in experiment [2] it was -7.74%.
On to `COc1ccc(-c2coc3cc(O[C@@H]4O[C@H](CO)[C@@H](O)[C@H](O)[C@H]4O)ccc3c2=O)cc1O` [Calycosin-7-O-beta-D-glucoside], for which the “cell growth inhibition ratio” value in experiment [1] was 3.27%; in experiment [2], -6.95%.
The matching figures for `COc1cc(O)cc(O)c1C(=O)/C=C/c1ccccc1` [Cardamoni]: 60.9% and 30.2%.
`COc1cc2ccc(=O)oc2c(O)c1O` [Fraxetin]: the “cell growth inhibition ratio” value in experiment [1] is -6.34%; in experiment [2] it was -43.4%.
On to `COc1ccc2cc1Oc1ccc(cc1)C[C@H]1c3c(cc4c(c3Oc3cc5c(cc3OC)CCN(C)[C@@H]5C2)OCO4)CCN1C` [Cepharanthine], for which the “cell growth inhibition ratio” value in experiment [1] amounted to 89.3%; in experiment [2], 37%.
Turning to `CC12CCC(CC1=O)C2(C)C` (stereo not drawn) [Camphor], the “cell growth inhibition ratio” value is -12.2% in experiment [1] and 3.82% in experiment [2].
On the same counts, the results for `NCCCS(=O)(=O)O` [Homotaurine] are 10.5% and -6.2%.
Take `Cc1c(C(=O)NCCO)[n+]([O-])c2ccccc2[n+]1[O-]` [Olaquindox]: the results for the “cell growth inhibition ratio” value in experiment [1] and in experiment [2] were 8.57% and 3.71%, respectively.
Consider `Cn1c(=O)c2[nH]cnc2n(C)c1=O` [Aminophylline], for which the “cell growth inhibition ratio” value is 0.52% in experiment [1] and -8.64% in experiment [2].
For the compound `CCCCCCCCCCCCCCCCCCCCCCO` [Behenic alcohol], the “cell growth inhibition ratio” value in experiment [1] was 5.89%; in experiment [2] it was -0.341%.
`C[C@H](CCC(=O)O)[C@H]1CC[C@H]2[C@@H]3[C@@H](O)C[C@@H]4C[C@H](O)CC[C@]4(C)[C@H]3CC[C@]12C` [Ursodeoxycholic acid]: the “cell growth inhibition ratio” value is -4.01% in experiment [1] and -11.5% in experiment [2].
Regarding `CC1=C(/C=C/C(C)=C/C=C/C(C)=C/C=C/C=C(C)/C=C/C=C(C)/C=C/C2=C(C)CCCC2(C)C)C(C)(C)CCC1` [Beta-Carotene], the “cell growth inhibition ratio” value was -16.3% in experiment [1] and -6.44% in experiment [2].
On to `O=C1O[C@H]([C@H](O)CO)C([O-])=C1O.[Na+]` [Sodium erythorbate], for which the results for the “cell growth inhibition ratio” value in experiment [1] and in experiment [2] were 4.98% and -16.8%, respectively.
The matching figures for `CC(C)=CCC[C@](C)(O[C@@H]1O[C@H](CO)[C@@H](O)[C@H](O)[C@H]1O)[C@H]1CC[C@]2(C)[C@@H]1[C@H](O)C[C@@H]1[C@@]3(C)CC[C@H](O)C(C)(C)[C@@H]3[C@@H](O[C@@H]3O[C@H](CO)[C@@H](O)[C@H](O)[C@H]3O[C@@H]3OC[C@@H](O)[C@H](O)[C@H]3O)C[C@]12C` [Notoginsenoside R1]: 1.52% and 7.55%.
On to `CO[C@H]1[C@H](O)[C@@H](O)[C@@H](O)[C@H](O)[C@@H]1O` [D-Pinitol], for which the results for the “cell growth inhibition ratio” value in experiment [1] and in experiment [2] were 9.82% and -13.2%, respectively.
On the same counts, the results for `CC(C)=CCC[C@](C)(O[C@@H]1O[C@H](CO)[C@@H](O)[C@H](O)[C@H]1O)[C@H]1CC[C@]2(C)[C@@H]1[C@H](O)C[C@@H]1[C@@]3(C)CC[C@H](O)C(C)(C)[C@@H]3[C@@H](O)C[C@]12C` [Ginsenoside F1] are 20.2% and 5.53%.
The matching figures for `C[C@@H]1NC(=O)[C@@H](N)CNC(=O)[C@H](C2CCNC(=N)N2)NC(=O)/C(=C/NC(N)=O)NC(=O)[C@H](CNC(=O)CC(N)CCCN)NC1=O.N=C1NCCC([C@@H]2NC(=O)/C(=C/NC(N)=O)NC(=O)[C@H](CNC(=O)CC(N)CCCN)NC(=O)[C@H](CO)NC(=O)[C@@H](N)CNC2=O)N1` (stereo partly drawn) [Capastat sulfate]: 9.32% and 10.2%.
As to `O=c1c(-c2ccc(O[C@@H]3O[C@H](CO)[C@@H](O)[C@H](O)[C@H]3O)cc2)coc2cc(O)cc(O)c12` [Sophoricoside], the figures for the “cell growth inhibition ratio” value in experiment [1] and in experiment [2] were 4.16% and 4.77%, respectively.
For `C[C@@H]1O[C@@H](OC[C@H]2O[C@@H](Oc3c(-c4ccc(OCCO)c(OCCO)c4)oc4cc(OCCO)cc(O)c4c3=O)[C@H](O)[C@@H](O)[C@@H]2O)[C@H](O)[C@H](O)[C@H]1O` [Troxerutin], the “cell growth inhibition ratio” value in experiment [1] was -1.04%; in experiment [2], -4.79%.
As for `CC12CCC(CC1)C(C)(C)O2` [Eucalyptol], the “cell growth inhibition ratio” value was 17.9% in experiment [1] and -8.53% in experiment [2].
Regarding `C[C@H]1O[C@@H](O[C@H]2[C@@H](O)C[C@H](O[C@H]3[C@@H](O)C[C@H](O[C@H]4CC[C@@]5(C)[C@H](CC[C@@H]6[C@@H]5C[C@@H](O)[C@]5(C)[C@@H](C7=CC(=O)OC7)CC[C@]65O)C4)O[C@@H]3C)O[C@@H]2C)C[C@H](O)[C@@H]1O` [Digoxin], the results for the “cell growth inhibition ratio” value in experiment [1] and in experiment [2] were 85.4% and 66%, respectively.
With `Oc1cc(O)c2c(c1)OC(c1ccc(O)c(O)c1)C(OC1(c3ccc(O)c(O)c3)Oc3cc(O)cc(O)c3C(O)C1O)C2` (stereo not drawn) [Proanthocyanidins], the entries for the “cell growth inhibition ratio” value in experiment [1] and in experiment [2] were 5.29% and -2.08%, respectively.
For the compound `C[C@@H]1O[C@@H](O[C@H]2[C@H](O[C@H]3CC[C@@]4(C)[C@@H](CC[C@]5(C)[C@@H]4CC=C4[C@@H]6CC(C)(C)CC[C@]6(C(=O)O[C@@H]6O[C@H](CO[C@@H]7O[C@H](CO)[C@@H](O)[C@H](O)[C@H]7O)[C@@H](O)[C@H](O)[C@H]6O)CC[C@]45C)[C@]3(C)CO)OC[C@H](O)[C@@H]2O)[C@H](O)[C@H](O[C@@H]2O[C@H](CO)[C@@H](O)[C@H](O)[C@H]2O)[C@H]1O` [macranthoidin A], the “cell growth inhibition ratio” value was 5.34% in experiment [1] and 14.5% in experiment [2].
On the same counts, the results for `CCCCCCCCCC(=O)N[C@H]1[C@H](Oc2c3cc4cc2Oc2ccc(cc2Cl)[C@@H](O[C@@H]2O[C@H](CO)[C@@H](O)[C@H](O)[C@H]2NC(C)=O)[C@@H]2NC(=O)[C@H](NC(=O)[C@@H]4NC(=O)[C@H]4NC(=O)[C@@H](Cc5ccc(c(Cl)c5)O3)NC(=O)[C@H](N)c3ccc(O)c(c3)Oc3cc(O)cc4c3)c3ccc(O)c(c3)-c3c(OC4O[C@H](CO)[C@@H](O)[C@H](O)[C@@H]4O)cc(O)cc3[C@@H](C(=O)O)NC2=O)O[C@H](CO)[C@@H](O)[C@@H]1O` (stereo partly drawn) [Teicoplanin] are 16.2% and 3.93%.
